Reference: publication PMC2661907, “The Proteasome Is a Molecular Target of Environmental Toxic Organotins” (Environmental Health Perspectives, 2008)
No constants are given. Whether binding was seen depends on the method and setting. Binding seen in cells or lysates may run through a third protein. Some entries that bind do so weakly or less than the wild type.

Amino acid sequences for entries named in this document (tags omitted). Residues count along the entry.
UniProt P25787: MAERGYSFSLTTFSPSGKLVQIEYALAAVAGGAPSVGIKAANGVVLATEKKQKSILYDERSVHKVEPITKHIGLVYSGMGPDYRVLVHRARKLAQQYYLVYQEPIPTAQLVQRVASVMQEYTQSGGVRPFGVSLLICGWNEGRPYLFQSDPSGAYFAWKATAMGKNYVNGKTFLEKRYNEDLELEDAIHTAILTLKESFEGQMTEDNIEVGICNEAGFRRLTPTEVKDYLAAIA
UniProt P28074, residues 60-263: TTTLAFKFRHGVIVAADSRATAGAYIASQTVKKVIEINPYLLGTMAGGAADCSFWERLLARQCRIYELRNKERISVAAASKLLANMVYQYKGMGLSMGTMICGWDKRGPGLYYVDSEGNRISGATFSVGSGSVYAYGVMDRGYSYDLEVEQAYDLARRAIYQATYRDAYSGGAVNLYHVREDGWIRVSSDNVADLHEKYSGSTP

Target: 20S proteasome subunit α2 (HC3) (human (endogenous in MDA-MB-231)) (UniProt P25787)
Experiment: co-IP; agarose beads with mouse monoclonal antibody to 20S proteasome subunit α2 incubated with whole-cell extracts (~800 μg protein) of MDA-MB-231 cells treated with 10 μmol/L TPT or methanol for 2 hr; overnight at 4°C in Tris-HCl 25 mmol/L, pH 7.5; three washes; Western blot with proteasome β5 antibody

binding: binds
Substance: 20S proteasome subunit β5 (from UniProt P28074 60-263)
